Tested on: Lipopolysaccharide

Question: `CC(C)(C)CC(C)(C)c1ccc(OCCOCC[N+](C)(C)Cc2ccccc2)cc1` [Benzethonium chloride, reference compound] was tested. Which inhibition did it give?
Answer: The inhibition was 94.6%.

Source: patent publication US10156566B2, “Detoxification of microbial virulence factors in oral cavity” (priority 2015, dated 2018)
